PubChem BioAssay AID1259405 | NCATS, 2018

- Assay: 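Silenced genes that increase secreted GFP made by CHO cells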 (primary screen)
- System: Chinese hamster CHO-K1 ovary cells with stable secreted eGFP expression
- Knock-down reagent: single siRNA against mouse genes, 0.8 pmol siRNA per well (2 µl of 400 nM stock)
- Duration: 3 days
- Measured: 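Percent of the per-plate non-targeting control median for intracellular GFP per well by laser scanning cytometry and for cell viability by ATP luminescence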
- Direction: GFP, % of control: higher = more GFP per well, higher productivity; viability (ATP), % of control: higher = more viable cells (more ATP)
- Rule for the call: 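Called active when intracellular GFP, relative to negative control, is at or above 120%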
The whole screen tested about 50,000 reagents; this is a part drawn at random. Of all reagents, about 4,000 (8%) were called active. 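Mouse siRNA library applied to hamster cells; one well for each siRNA.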 The numbers tell different reagents against one gene apart. No sequences are given here.

target | reagent | GFP, % of control | viability (ATP), % of control | Outcome
Epb41l3 | 1 | 67.3 | 88.3 | inactive
Epb41l3 | 2 | 141 | 90.7 | active
Epb41l3 | 3 | 166 | 40.2 | active
Snrpn | 1 | 73.8 | 91.3 | inactive
Snrpn | 2 | 54.5 | 56.5 | inactive
Vmn1r200 | 1 | 120 | 61.7 | active
Vmn1r200 | 2 | 141 | 69.1 | active
Vmn1r200 | 3 | 115 | 110 | inactive
Slc39a7 | 1 | 74.5 | 56 | inactive
Slc39a7 | 2 | 86.6 | 48.1 | inactive
Slc39a7 | 3 | 98 | 91.5 | inactive
Apba2 | 1 | 73.7 | 85.3 | inactive
Apba2 | 2 | 96.5 | 68.7 | inactive
Vsnl1 | 1 | 151 | 111 | active
Vsnl1 | 2 | 97.1 | 87.4 | inactive
Vsnl1 | 3 | 151 | 88.5 | active
Vsnl1 | 4 | 84.1 | 117 | inactive
Vsnl1 | 5 | 79.7 | 99.6 | inactive
Vamp7 | 1 | 83.4 | 107 | inactive
Vamp7 | 2 | 70.8 | 72.3 | inactive
Or5m3 | 1 | 50.2 | 75 | inactive
Or5m3 | 2 | 71.8 | 82.4 | inactive
Or5m3 | 3 | 95.2 | 54.3 | inactive
Tmem50a | 1 | 58.9 | 65.5 | inactive
Tmem50a | 2 | 73 | 116 | inactive
Tmem50a | 3 | 116 | 99.7 | inactive
Cyp2a12 | 1 | 47.4 | 37.6 | inactive
Cyp2a12 | 2 | 74.7 | 56.3 | inactive
Cyp2a12 | 3 | 75.6 | 83.2 | inactive
Mrs2 | 1 | 96.2 | 89.3 | inactive
Mrs2 | 2 | 48.6 | 69.9 | inactive
Mrs2 | 3 | 69.3 | 65.8 | inactive
Tmtc2 | 1 | 80.9 | 76.2 | inactive
Tmtc2 | 2 | 61.1 | 82.6 | inactive
Tmtc2 | 3 | 52.5 | 54.7 | inactive
Nhlh2 | 1 | 77.4 | 91 | inactive
Nhlh2 | 2 | 119 | 90.3 | inactive
Nhlh2 | 3 | 79.2 | 116 | inactive
Gmfg | 1 | 106 | 69 | inactive
Gmfg | 2 | 88 | 81.2 | inactive
Gmfg | 3 | 61.9 | 50.1 | inactive
Steap1 | 1 | 120 | 75.4 | active
Steap1 | 2 | 37.7 | 72.3 | inactive
Steap1 | 3 | 55.9 | 52.9 | inactive
H3f3a | 1 | 43.3 | 59.8 | inactive
H3f3a | 2 | 109 | 90.2 | inactive
H3f3a | 3 | 51.9 | 84.5 | inactive
Cel | 1 | 48 | 35.5 | inactive
Cel | 2 | 75.3 | 70.3 | inactive
Cel | 3 | 72.7 | 53.7 | inactive
Celf2 | 1 | 82.1 | 85.2 | inactive
Celf2 | 2 | 98.5 | 36.3 | inactive
Celf2 | 3 | 79.8 | 78.6 | inactive
Celf2 | 4 | 77.4 | 84.9 | inactive
Celf2 | 5 | 85.1 | 87 | inactive
Celf2 | 6 | 45.3 | 42.5 | inactive

Part of the list above, limited to “viability (ATP), % of control”:
Vsnl1 #5	99.6
Vamp7 #1	107
Vamp7 #2	72.3
Or5m3 #1	75
Or5m3 #2	82.4
Or5m3 #3	54.3
Tmem50a #1	65.5
Tmem50a #2	116

The results go on:
target | reagent | GFP, % of control | viability (ATP), % of control | Outcome
Emc10 | 1 | 66.9 | 65.8 | inactive
Emc10 | 2 | 45.3 | 45.7 | inactive
Emc10 | 3 | 98.7 | 84.4 | inactive
Tti1 | 1 | 63.9 | 65.7 | inactive
Tti1 | 2 | 39.2 | 72 | inactive
Tti1 | 3 | 77.3 | 97.9 | inactive
Ak3 | 1 | 60.1 | 83.7 | inactive
Cracr2b | 1 | 59.4 | 56 | inactive
Cracr2b | 2 | 74 | 71.8 | inactive
Cracr2b | 3 | 93.9 | 104 | inactive
Vmn1r53 | 1 | 42.4 | 57.5 | inactive
Vmn1r53 | 2 | 65.7 | 60.6 | inactive
Vmn1r53 | 3 | 84.8 | 82.7 | inactive
Mapre2 | 1 | 66.3 | 73.7 | inactive
Mapre2 | 2 | 107 | 73.1 | inactive
Mapre2 | 3 | 86.5 | 44.9 | inactive
Cryaa | 1 | 87.3 | 86.3 | inactive
Cryaa | 2 | 104 | 88 | inactive
Hmgn2 | 1 | 67.7 | 73.7 | inactive
Hmgn2 | 2 | 46.3 | 83.2 | inactive
Hmgn2 | 3 | 18.3 | 20.1 | inactive
Treh | 1 | 108 | 77.1 | inactive
Treh | 2 | 60.3 | 56.6 | inactive
Treh | 3 | 67.9 | 92.8 | inactive
Gm5154 | 1 | 83.1 | 75.7 | inactive
Gm5154 | 2 | 89.1 | 71.5 | inactive
Gm5154 | 3 | 73 | 56.5 | inactive
Pkdrej | 1 | 116 | 110 | inactive
Pkdrej | 2 | 58.5 | 59.8 | inactive
Pkdrej | 3 | 74 | 79.6 | inactive
